The other results are listed elsewhere or left out.
Key:
Experiment in all cases: log2 fold change, soluble protein after heating vs DMSO (PISA); higher = thermal stabilisation; K562 cells, 10 uM, 30 min; active = over 0.2 and 3.5 SD of the protein, either way, in both replicates (recomputed)
saracatinib = compound: CN1CCN(CCOc2cc(OC3CCOCC3)c3c(Nc4c(Cl)ccc5c4OCO5)ncnc3c2)CC1 [saracatinib]
In short: (§1)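 Thermal stability values are relative to control samples and come from duplicates. They are expressed as log2 fold changes. For measurement, K562 cells (2×10^6 cells/mL) received 10 μM compound for 30 min, and aliquots were heated for 3 min over 48°C-58°C, pooled, and extracted at 4°C in PBS with 0.5% NP-40. Soluble protein, the supernatant after 21,000xg for 90 min, was quantified by TMTpro 16plex LC-MS/MS with equalised channel sums.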

Protein sequences, listed by entry. Tags and fused reporters are not part of them. Lines headed by an entry give the natural chain unless they say otherwise; changes in a name come on top.
UniProt O15269: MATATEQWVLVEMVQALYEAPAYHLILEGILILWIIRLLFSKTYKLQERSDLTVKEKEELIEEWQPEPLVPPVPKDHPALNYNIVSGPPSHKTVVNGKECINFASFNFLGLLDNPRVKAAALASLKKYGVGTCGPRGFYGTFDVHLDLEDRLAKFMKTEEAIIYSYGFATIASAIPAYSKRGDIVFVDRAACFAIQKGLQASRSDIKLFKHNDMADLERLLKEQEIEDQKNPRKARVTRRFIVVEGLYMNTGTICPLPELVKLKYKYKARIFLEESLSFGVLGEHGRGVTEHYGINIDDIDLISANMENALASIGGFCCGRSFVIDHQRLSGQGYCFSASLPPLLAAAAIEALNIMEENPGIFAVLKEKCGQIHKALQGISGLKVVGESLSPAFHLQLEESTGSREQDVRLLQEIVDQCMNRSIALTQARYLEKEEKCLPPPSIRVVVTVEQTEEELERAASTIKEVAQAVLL
UniProt P52630: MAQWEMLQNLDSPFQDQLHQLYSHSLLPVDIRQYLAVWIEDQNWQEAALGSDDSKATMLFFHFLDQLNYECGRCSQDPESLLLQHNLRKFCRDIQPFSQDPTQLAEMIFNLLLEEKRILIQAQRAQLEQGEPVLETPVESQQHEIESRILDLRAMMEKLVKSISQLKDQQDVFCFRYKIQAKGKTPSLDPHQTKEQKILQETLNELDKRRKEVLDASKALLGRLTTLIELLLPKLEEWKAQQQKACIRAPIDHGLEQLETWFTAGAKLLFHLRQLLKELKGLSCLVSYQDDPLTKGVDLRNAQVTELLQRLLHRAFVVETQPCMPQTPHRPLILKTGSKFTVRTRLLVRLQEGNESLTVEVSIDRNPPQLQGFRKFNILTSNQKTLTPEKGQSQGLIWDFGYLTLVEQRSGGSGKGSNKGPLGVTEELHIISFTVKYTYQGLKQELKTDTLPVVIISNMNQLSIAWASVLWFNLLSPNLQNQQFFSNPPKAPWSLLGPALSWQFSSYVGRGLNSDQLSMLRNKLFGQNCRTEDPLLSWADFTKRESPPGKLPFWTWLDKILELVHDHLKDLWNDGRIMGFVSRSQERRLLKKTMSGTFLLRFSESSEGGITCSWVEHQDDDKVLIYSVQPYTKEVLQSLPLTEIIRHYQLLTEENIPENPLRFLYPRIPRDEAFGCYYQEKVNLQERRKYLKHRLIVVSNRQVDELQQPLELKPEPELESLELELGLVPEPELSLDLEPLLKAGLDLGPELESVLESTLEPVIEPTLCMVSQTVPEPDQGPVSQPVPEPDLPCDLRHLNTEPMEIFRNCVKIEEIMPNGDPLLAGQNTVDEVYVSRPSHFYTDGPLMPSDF
UniProt O00506, whole entry, looked up: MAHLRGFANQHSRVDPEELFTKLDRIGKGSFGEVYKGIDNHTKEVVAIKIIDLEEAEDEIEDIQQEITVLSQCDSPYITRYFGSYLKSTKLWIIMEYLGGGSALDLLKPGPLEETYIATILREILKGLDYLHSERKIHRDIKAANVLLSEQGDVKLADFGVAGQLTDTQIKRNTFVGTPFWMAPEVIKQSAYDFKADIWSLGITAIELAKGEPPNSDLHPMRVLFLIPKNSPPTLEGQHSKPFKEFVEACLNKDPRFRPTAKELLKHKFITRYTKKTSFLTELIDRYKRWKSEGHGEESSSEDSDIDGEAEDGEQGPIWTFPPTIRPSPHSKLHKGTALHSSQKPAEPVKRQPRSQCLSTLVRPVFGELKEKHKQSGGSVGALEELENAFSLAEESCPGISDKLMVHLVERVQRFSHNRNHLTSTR
UniProt Q16385, whole entry, looked up: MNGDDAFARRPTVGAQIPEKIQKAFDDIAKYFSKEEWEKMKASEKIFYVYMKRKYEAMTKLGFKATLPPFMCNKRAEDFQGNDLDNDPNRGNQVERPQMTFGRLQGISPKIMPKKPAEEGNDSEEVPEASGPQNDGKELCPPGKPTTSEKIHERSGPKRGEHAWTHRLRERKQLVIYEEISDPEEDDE
UniProt O15020, whole entry, looked up: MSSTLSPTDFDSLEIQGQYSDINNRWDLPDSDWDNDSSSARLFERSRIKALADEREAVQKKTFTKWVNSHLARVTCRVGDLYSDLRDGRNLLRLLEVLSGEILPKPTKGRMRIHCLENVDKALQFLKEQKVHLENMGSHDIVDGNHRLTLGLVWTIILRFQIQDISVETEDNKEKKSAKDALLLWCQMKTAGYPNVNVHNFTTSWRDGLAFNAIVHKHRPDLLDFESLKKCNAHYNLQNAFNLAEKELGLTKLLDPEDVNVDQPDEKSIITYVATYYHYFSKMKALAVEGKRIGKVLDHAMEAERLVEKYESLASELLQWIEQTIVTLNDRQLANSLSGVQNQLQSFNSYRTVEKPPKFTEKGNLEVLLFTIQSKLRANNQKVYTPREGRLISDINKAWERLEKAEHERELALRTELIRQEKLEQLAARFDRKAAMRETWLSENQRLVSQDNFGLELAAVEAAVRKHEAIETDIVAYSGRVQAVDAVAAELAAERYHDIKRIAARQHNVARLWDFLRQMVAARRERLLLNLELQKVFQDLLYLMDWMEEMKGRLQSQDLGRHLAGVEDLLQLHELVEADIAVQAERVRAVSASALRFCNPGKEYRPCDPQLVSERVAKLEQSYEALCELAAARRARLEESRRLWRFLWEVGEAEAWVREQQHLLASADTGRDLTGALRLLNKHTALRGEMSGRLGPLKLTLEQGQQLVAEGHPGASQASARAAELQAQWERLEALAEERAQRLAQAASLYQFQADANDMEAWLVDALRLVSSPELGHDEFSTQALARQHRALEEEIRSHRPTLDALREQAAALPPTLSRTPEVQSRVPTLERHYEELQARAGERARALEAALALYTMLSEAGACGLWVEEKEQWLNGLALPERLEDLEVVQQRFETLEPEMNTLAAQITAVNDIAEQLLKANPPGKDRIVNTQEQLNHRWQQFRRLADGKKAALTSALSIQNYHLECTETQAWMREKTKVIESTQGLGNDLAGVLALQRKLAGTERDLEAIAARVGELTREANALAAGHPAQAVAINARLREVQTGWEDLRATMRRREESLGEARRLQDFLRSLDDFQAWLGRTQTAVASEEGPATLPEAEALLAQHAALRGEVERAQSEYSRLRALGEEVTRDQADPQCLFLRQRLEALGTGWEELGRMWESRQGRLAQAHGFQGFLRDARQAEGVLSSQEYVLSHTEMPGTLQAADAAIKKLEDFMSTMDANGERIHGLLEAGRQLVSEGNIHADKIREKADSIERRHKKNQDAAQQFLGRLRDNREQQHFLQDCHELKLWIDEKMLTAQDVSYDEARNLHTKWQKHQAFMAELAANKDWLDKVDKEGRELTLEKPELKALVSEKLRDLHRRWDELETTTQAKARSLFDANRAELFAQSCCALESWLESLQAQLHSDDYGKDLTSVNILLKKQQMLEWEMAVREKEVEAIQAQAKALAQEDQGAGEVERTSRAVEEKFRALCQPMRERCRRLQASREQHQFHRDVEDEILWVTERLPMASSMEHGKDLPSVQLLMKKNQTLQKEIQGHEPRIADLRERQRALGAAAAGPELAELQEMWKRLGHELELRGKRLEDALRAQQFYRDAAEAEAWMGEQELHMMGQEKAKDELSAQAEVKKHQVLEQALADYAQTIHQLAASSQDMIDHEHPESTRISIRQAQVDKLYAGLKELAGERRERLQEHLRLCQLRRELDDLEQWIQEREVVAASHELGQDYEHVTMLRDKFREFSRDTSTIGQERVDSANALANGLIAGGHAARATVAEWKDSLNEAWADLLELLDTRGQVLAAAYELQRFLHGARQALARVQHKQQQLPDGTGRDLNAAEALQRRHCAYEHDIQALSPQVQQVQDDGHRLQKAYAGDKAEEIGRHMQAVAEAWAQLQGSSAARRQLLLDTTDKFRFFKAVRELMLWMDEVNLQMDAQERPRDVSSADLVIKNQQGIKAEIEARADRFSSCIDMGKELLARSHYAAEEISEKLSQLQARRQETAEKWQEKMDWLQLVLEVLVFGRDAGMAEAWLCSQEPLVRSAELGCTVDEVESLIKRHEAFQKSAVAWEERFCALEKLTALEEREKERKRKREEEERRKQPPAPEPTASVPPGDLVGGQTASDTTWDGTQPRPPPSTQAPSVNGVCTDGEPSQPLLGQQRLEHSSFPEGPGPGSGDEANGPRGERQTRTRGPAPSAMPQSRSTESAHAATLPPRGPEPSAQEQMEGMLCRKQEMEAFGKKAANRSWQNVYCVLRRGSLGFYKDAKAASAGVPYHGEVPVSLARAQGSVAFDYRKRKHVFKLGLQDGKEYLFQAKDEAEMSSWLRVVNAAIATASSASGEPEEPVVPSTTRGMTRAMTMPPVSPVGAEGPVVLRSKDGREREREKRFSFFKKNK
UniProt P84103: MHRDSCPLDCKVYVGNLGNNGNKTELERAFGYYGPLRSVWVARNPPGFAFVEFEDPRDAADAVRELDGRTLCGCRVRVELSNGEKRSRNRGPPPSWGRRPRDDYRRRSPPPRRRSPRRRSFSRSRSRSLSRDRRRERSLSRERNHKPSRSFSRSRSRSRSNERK
UniProt Q8WWL2: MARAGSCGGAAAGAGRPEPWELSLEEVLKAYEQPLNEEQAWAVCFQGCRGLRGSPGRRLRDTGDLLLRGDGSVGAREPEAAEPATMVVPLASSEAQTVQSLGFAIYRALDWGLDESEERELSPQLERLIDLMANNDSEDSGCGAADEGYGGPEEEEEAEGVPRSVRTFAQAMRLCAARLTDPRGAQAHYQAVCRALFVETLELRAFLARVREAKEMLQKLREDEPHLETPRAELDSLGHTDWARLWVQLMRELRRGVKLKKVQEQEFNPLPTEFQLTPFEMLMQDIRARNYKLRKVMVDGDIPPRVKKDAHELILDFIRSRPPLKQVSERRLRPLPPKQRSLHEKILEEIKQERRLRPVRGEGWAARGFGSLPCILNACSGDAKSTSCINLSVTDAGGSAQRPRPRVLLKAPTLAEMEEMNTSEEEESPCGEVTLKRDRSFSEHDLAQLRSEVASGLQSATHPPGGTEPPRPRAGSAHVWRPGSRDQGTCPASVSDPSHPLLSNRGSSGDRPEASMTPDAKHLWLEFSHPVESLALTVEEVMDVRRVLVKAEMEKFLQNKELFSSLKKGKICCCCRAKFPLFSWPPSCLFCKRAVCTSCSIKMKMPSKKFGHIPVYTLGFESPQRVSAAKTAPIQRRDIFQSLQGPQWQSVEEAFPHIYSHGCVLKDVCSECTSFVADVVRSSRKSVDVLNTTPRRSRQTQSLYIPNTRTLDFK
UniProt Q13247: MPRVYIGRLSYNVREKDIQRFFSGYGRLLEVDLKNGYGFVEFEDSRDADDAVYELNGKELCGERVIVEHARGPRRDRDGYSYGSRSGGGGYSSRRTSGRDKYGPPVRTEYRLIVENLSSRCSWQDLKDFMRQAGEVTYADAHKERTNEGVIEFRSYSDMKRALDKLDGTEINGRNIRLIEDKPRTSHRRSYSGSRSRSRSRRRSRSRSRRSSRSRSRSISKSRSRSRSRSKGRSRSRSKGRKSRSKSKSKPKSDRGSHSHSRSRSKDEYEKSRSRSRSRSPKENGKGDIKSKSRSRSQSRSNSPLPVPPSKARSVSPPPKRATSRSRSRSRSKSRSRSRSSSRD
UniProt Q8TCT7: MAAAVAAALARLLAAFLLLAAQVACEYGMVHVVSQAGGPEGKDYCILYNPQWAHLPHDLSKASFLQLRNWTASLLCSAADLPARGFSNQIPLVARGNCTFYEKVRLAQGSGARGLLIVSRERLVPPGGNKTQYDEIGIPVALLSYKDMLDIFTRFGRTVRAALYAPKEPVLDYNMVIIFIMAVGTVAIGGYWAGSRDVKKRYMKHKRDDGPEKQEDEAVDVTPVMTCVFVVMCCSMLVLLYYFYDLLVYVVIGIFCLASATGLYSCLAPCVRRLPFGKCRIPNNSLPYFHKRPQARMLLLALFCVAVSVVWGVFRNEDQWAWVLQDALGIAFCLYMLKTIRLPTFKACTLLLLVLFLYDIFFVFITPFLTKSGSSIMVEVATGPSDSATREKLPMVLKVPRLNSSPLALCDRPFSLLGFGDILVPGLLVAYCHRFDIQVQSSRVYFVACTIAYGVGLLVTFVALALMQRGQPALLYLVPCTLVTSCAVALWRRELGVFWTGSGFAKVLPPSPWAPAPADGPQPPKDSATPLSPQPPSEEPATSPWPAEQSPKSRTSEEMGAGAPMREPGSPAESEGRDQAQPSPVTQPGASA
UniProt Q15532, whole entry, looked up: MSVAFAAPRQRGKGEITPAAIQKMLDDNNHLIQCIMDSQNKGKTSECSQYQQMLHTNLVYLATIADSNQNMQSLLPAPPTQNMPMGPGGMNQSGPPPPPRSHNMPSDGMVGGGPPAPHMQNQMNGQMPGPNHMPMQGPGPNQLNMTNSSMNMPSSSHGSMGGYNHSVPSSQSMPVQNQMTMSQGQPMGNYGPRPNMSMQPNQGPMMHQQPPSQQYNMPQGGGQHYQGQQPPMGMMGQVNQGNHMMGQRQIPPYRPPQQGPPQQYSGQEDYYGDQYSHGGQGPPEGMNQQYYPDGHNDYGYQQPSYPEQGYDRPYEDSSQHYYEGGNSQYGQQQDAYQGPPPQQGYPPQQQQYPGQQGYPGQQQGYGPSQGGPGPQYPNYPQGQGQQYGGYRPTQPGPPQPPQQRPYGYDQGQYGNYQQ

sotrastaurin = compound: CN1CCN(c2nc(C3=C(c4c[nH]c5ccccc45)C(=O)NC3=O)c3ccccc3n2)CC1 [sotrastaurin]
In short: as §1

alvocidib = compound: CN1CC[C@H](c2c(O)cc(O)c3c(=O)cc(-c4ccccc4Cl)oc23)[C@H](O)C1 [alvocidib]
In short: as §1

Tubastatin A = compound: CN1CCc2c(c3ccccc3n2Cc2ccc(C(=O)NO)cc2)C1 [Tubastatin A]
In short: as §1

[1] = compound: CNC(=O)C1=CC=CC=C1NC2=NC(=NC=C2Cl)NC3=C(C=C(C=C3)N4CCOCC4)OC
In short: as §1

defactinib = compound: CNC(=O)c1ccc(Nc2ncc(C(F)(F)F)c(NCc3nccnc3N(C)S(C)(=O)=O)n2)cc1 [defactinib]
In short: as §1

rucaparib = compound: CNCc1ccc(-c2[nH]c3cc(F)cc4c3c2CCNC4=O)cc1 [rucaparib]
In short: as §1

[2] = compound: CNc1nc(-c2ccc3c(N)n[nH]c3c2)cc(N2C[C@@H](C(=O)NC3CCCCC3)CC[C@H]2C)n1
In short: as §1

encorafenib = compound: COC(=O)N[C@@H](C)CNc1nccc(-c2cn(C(C)C)nc2-c2cc(Cl)cc(NS(C)(=O)=O)c2F)n1 [encorafenib]
In short: as §1

[3] = compound: COC(=O)[C@H](CCSC)NC(=O)C1=C(C=C(C=C1)NC[C@H](CS)N)C2=CC=CC=C2
In short: as §1

[4] = compound: COC1=CC=C(C=C1)CN2C=CC3=C2C=C(C=C3)C(=O)NO
In short: as §1

filanesib = compound: CON(C)C(=O)N1N=C(c2cc(F)ccc2F)S[C@@]1(CCCN)c1ccccc1 [filanesib]
In short: as §1

zotarolimus = compound: CO[C@H]1C[C@@H]2CC[C@@H](C)[C@@](O)(O2)C(=O)C(=O)N2CCCC[C@H]2C(=O)O[C@H]([C@H](C)C[C@@H]2CC[C@H](n3cnnn3)[C@H](OC)C2)CC(=O)[C@H](C)/C=C(\C)[C@@H](O)[C@@H](OC)C(=O)[C@H](C)C[C@H](C)/C=C/C=C/C=C/1C [zotarolimus]
In short: as §1

idasanutlin = compound: COc1cc(C(=O)O)ccc1NC(=O)[C@@H]1N[C@@H](CC(C)(C)C)[C@](C#N)(c2ccc(Cl)cc2F)[C@H]1c1cccc(Cl)c1F [idasanutlin]
In short: as §1

alisertib = compound: COc1cc(Nc2ncc3c(n2)-c2ccc(Cl)cc2C(c2c(F)cccc2OC)=NC3)ccc1C(=O)O [alisertib]
In short: as §1

[5] = compound: COc1cc2nc(-c3cc(F)ccc3O)nc(N[C@@H]3CNC[C@H]3C(C)(C)O)c2cc1OC
In short: as §1

gefitinib = compound: COc1cc2ncnc(Nc3ccc(F)c(Cl)c3)c2cc1OCCCN1CCOCC1 [gefitinib]
In short: as §1

[6] = compound: COc1cccc2cc(-c3nc([C@H]4CC[C@H](C(=O)O)CC4)n4ncnc(N)c34)[nH]c12
In short: as §1

lapatinib = compound: CS(=O)(=O)CCNCc1ccc(-c2ccc3ncnc(Nc4ccc(OCc5cccc(F)c5)c(Cl)c4)c3c2)o1 [lapatinib]
In short: as §1

pictilisib = compound: CS(=O)(=O)N1CCN(Cc2cc3nc(-c4cccc5[nH]ncc45)nc(N4CCOCC4)c3s2)CC1 [pictilisib]
In short: as §1

Measured: log2 fold change

SPTLC1 (UniProt O15269)
inactive: saracatinib -0.016 | sotrastaurin -0.014 | alvocidib -0.076 | Tubastatin A 0.027 | [1] 0.019 | defactinib -0.079 | rucaparib 0.017 | [2] 0.044 | encorafenib 0.016 | [3] -0.064 | [4] -0.009 | filanesib -0.09 | zotarolimus 0 | idasanutlin -0.063 | alisertib -0.102 | [5] 0.008 | gefitinib 0.061 | [6] 0.051 | lapatinib 0 | pictilisib -0.009

STAT2 (UniProt P52630)
inactive: saracatinib -0.057 | sotrastaurin -0.18 | alvocidib -0.346 | Tubastatin A 0.295 | [1] -0.047 | defactinib 0 | rucaparib 0.328 | [2] 0.112 | encorafenib 0.096 | [3] -0.279 | [4] -0.168 | filanesib 0.085 | zotarolimus 0.039 | idasanutlin 0.12 | alisertib -0.01 | [6] -0.535 | pictilisib -0.049

STK25 (UniProt O00506)
inactive: saracatinib -0.045 | sotrastaurin 0.088 | Tubastatin A -0.007 | [1] -0.078 | defactinib -0.041 | rucaparib 0.011 | [2] -0.012 | encorafenib 0.039 | [3] 0.051 | [4] -0.06 | filanesib -0.006 | zotarolimus -0.039 | idasanutlin 0.006 | alisertib -0.055 | [5] 0.076 | gefitinib -0.061 | [6] 0.038 | lapatinib -0.047 | pictilisib 0.053

SSX2 (UniProt Q16385)
inactive: saracatinib 0.017 | sotrastaurin -0.028 | Tubastatin A 0.062 | [1] 0.066 | defactinib -0.114 | rucaparib 0.025 | [2] -0.078 | encorafenib 0.021 | [3] -0.012 | [4] 0.083 | filanesib 0.009 | zotarolimus -0.014 | idasanutlin -0.021 | alisertib 0.035 | [5] 0.025 | gefitinib 0.032 | [6] 0.004 | lapatinib -0.011 | pictilisib 0.064

SRSF4 (UniProt Q08170)
inactive: saracatinib -0.065 | sotrastaurin 0.028 | Tubastatin A 0.17 | [1] -0.283 | defactinib 0.045 | rucaparib 0.165 | [2] 0.013 | encorafenib 0.154 | [3] 0.023 | [4] -0.085 | filanesib 0.234 | zotarolimus 0.053 | idasanutlin 0.207 | alisertib -0.137 | [5] -0.04 | gefitinib -0.014 | [6] -0.089 | lapatinib 0.137 | pictilisib -0.007

STAM (UniProt Q92783)
inactive: saracatinib 0.045 | sotrastaurin 0.05 | alvocidib 0.007 | Tubastatin A 0.007 | [1] 0 | defactinib -0.019 | rucaparib -0.089 | [2] -0.072 | encorafenib 0.02 | [3] 0.073 | [4] 0.094 | filanesib -0.02 | zotarolimus -0.011 | idasanutlin -0.001 | alisertib -0.032 | [5] -0.006 | gefitinib -0.016 | [6] -0.015 | lapatinib -0.008 | pictilisib 0

SPP2 (UniProt Q13103)
inactive: saracatinib 0.079 | sotrastaurin 0.228 | alvocidib 0.028 | Tubastatin A -0.222 | [1] 0.03 | defactinib 0.088 | [2] -0.027 | [3] -0.006 | filanesib 0.101 | zotarolimus -0.115 | idasanutlin 0.089

SPATA33 isoform 2 (UniProt Q96N06)
inactive: saracatinib 0.11 | sotrastaurin 0.022 | alvocidib 0.018 | Tubastatin A 0.035 | [1] -0.06 | defactinib 0.021 | rucaparib 0.022 | [2] -0.017 | encorafenib 0.013 | [3] -0.173 | filanesib -0.021 | zotarolimus -0.048 | idasanutlin 0.127 | [5] 0.012 | gefitinib 0.061 | lapatinib -0.024 | pictilisib 0.04

2 records picked at random from the list so far:
SPP2 (UniProt Q13103)
inactive: saracatinib 0.079 | sotrastaurin 0.228 | alvocidib 0.028 | Tubastatin A -0.222 | [1] 0.03 | defactinib 0.088 | [2] -0.027 | [3] -0.006 | filanesib 0.101 | zotarolimus -0.115 | idasanutlin 0.089

SPATA33 isoform 2 (UniProt Q96N06)
inactive: saracatinib 0.11 | sotrastaurin 0.022 | alvocidib 0.018 | Tubastatin A 0.035 | [1] -0.06 | defactinib 0.021 | rucaparib 0.022 | [2] -0.017 | encorafenib 0.013 | [3] -0.173 | filanesib -0.021 | zotarolimus -0.048 | idasanutlin 0.127 | [5] 0.012 | gefitinib 0.061 | lapatinib -0.024 | pictilisib 0.04

The list goes on.

SPTBN2 (UniProt O15020)
inactive: saracatinib 0.04 | sotrastaurin -0.14 | alvocidib -0.105 | Tubastatin A 0.059 | [1] 0.045 | defactinib -0.075 | rucaparib 0.064 | [2] -0.086 | encorafenib 0.124 | [3] -0.074 | [4] 0.013 | filanesib 0.105 | zotarolimus -0.098 | idasanutlin 0.039 | alisertib 0.076 | [5] 0.007 | gefitinib 0.015 | [6] -0.163 | lapatinib 0.016 | pictilisib 0

SRSF3 (UniProt P84103)
inactive: saracatinib 0.019 | sotrastaurin 0.079 | Tubastatin A -0.026 | [1] -0.053 | defactinib 0.235 | rucaparib 0.257 | [2] -0.022 | encorafenib 0.023 | [3] 0.032 | [4] -0.226 | filanesib 0.193 | zotarolimus -0.054 | idasanutlin 0.217 | alisertib -0.101 | [5] -0.011 | gefitinib -0.026 | [6] -0.009 | lapatinib -0.006 | pictilisib -0.018

SPIRE2 (UniProt Q8WWL2)
inactive: saracatinib 0.774 | sotrastaurin -0.031 | alvocidib -0.123 | Tubastatin A -0.174 | rucaparib -0.546 | [2] 0.268 | encorafenib -0.108 | [4] -0.217 | filanesib 0.104 | zotarolimus -0.405 | pictilisib 0.139

ST7 (UniProt Q9NRC1)
inactive: saracatinib 0.015 | sotrastaurin 0.018 | alvocidib 0.048 | Tubastatin A 0 | [1] -0.1 | defactinib 0.014 | rucaparib 0.055 | [2] -0.016 | encorafenib 0.03 | [3] -0.06 | [4] 0.01 | filanesib 0.018 | zotarolimus -0.014 | idasanutlin -0.029 | alisertib -0.101 | [5] -0.063 | gefitinib 0.051 | [6] -0.016 | lapatinib -0.072 | pictilisib -0.037

STAU2 (UniProt Q9NUL3)
inactive: saracatinib -0.275 | sotrastaurin 0.037 | alvocidib 0.168 | Tubastatin A 0.335 | [1] 0.064 | defactinib 0.692 | rucaparib 0.425 | [2] -0.068 | encorafenib 0.155 | [3] -0.071 | [4] 0.008 | filanesib 0.377 | zotarolimus 0.084 | idasanutlin 0.242 | alisertib 0.158 | [5] 0.205 | [6] -0.221 | lapatinib -0.137 | pictilisib 0.016

SRSF6 (UniProt Q13247)
inactive: saracatinib 0.032 | sotrastaurin 0.031 | Tubastatin A 0.092 | [1] -0.331 | defactinib 0.032 | rucaparib 0.227 | [2] -0.113 | encorafenib 0.096 | [3] 0.018 | [4] -0.209 | filanesib 0.218 | zotarolimus -0.118 | idasanutlin 0.375 | alisertib -0.105 | [5] -0.134 | gefitinib 0.033 | [6] -0.032 | lapatinib 0.163 | pictilisib -0.473

SRPRA (UniProt P08240)
inactive: saracatinib -0.001 | sotrastaurin -0.006 | Tubastatin A -0.007 | [1] 0.033 | defactinib 0.022 | rucaparib 0.116 | [2] 0.06 | encorafenib 0.019 | [3] -0.044 | [4] 0.008 | filanesib -0.022 | zotarolimus -0.005 | idasanutlin -0.107 | alisertib -0.005 | [5] 0.122 | gefitinib -0.032 | [6] -0.002 | lapatinib 0.013 | pictilisib -0.012

SPEN (UniProt Q96T58)
inactive: saracatinib 0.04 | alvocidib -0.063 | Tubastatin A -0.059 | [1] -0.037 | defactinib -0.007 | rucaparib 0.18 | [2] 0.033 | encorafenib -0.083 | [3] 0.052 | zotarolimus -0.033 | idasanutlin -0.091 | alisertib 0.537 | [5] -0.152 | gefitinib 0.086 | [6] -0.043 | lapatinib -0.048 | pictilisib -0.046

SPPL2B (UniProt Q8TCT7)
inactive: saracatinib -0.009 | sotrastaurin 0.074 | Tubastatin A -0.031 | [1] 0.026 | defactinib -0.014 | rucaparib -0.036 | [2] -0.06 | encorafenib 0.029 | [3] 0.069 | [4] 0.025 | filanesib -0.223 | zotarolimus -0.016 | idasanutlin -0.01 | alisertib -0.113 | [5] -0.05 | gefitinib -0.061 | [6] 0.084 | lapatinib -0.002
active: pictilisib 0.292

SS18 (UniProt Q15532)
inactive: saracatinib -0.127 | alvocidib -0.303 | Tubastatin A 0.034 | [1] 0.015 | defactinib -0.085 | rucaparib -0.056 | [2] -0.13 | encorafenib 0.013 | [3] 0.051 | zotarolimus 0.284 | idasanutlin -0.156 | alisertib -0.129 | [5] -0.357 | gefitinib -0.043 | [6] -0.057 | lapatinib -0.05 | pictilisib 0.041
